# Some of these results come from one statement about several compounds together.
# Tests used:
# Assay type in all cases: in vivo
# [1] = test system: diamondback moth (Plutella xylostella (L.)); test: Test A: control of diamondback moth, foliar spray on mustard plant; conditions: assessed after 6 days, very good to excellent levels of control efficacy
# [2] = test system: fall armyworm (Spodoptera frugiperda (J. E. Smith)); test: Test B: control of fall armyworm, foliar spray on corn (maize) plant; conditions: assessed after 6 days, very good to excellent levels of control efficacy
# [3] = test system: potato leafhopper (Empoasca fabae (Harris)); test: Test D: control of potato leafhopper through contact and/or systemic means; conditions: Soleil bean plant, assessed after 6 days
# Method: Formulation and Spray Methodology for Tests A-H
# Test compounds were formulated using a solution containing 10% acetone, 90% water and 300 ppm Activator 90® non-ionic surfactant (Loveland Products, Loveland, Colo., USA). The formulated compounds were applied in 1 mL of liquid through an atomizer nozzle positioned 1.27 cm (0.5 inches) above the top of each test unit. Test compounds were sprayed at the rates indicated, and each test was replicated three times.
# For evaluating control of potato leafhopper (Empoasca fabae (Harris)) through contact and/or systemic means, the test unit consisted of a small open container with a 5-6-day-old Soleil bean plant (primary leaves emerged) inside. White sand was added to the top of the soil, and one of the primary leaves was excised prior to application of the test compound.
# Test compounds were formulated and sprayed at 250, 50, 10 and 2 ppm. After spraying of the formulated test compound, the test units were allowed to dry for 1 hour before they were post-infested with 5 potato leafhoppers (18-to-21-day-old adults). A black, screened cap was placed on the top of the test unit, and the test units were held for 6 days in a growth chamber at 20° C. and 70% relative humidity. Each test unit was then visually assessed for insect mortality.
# [4] = test system: Western Flower Thrips (Frankliniellla occidentalis (Pergande)); test: Test H: control of Western Flower Thrips through contact and/or systemic means; conditions: Soleil bean plant, assessed after 6 days, very good to excellent levels of control efficacy
Compound,control efficacy: feeding damage (40% or less feeding damage and/or 100% mortality) ([1]; sprayed at 2 ppm),control efficacy: feeding damage (40% or less feeding damage and/or 100% mortality) ([1]; sprayed at 10 ppm),control efficacy: feeding damage (40% or less feeding damage and/or 100% mortality) ([2]; sprayed at 10 ppm),mortality ([3]; sprayed at 50 ppm),control efficacy: plant damage (30% or less plant damage and/or 100% mortality) ([4]; sprayed at 10 ppm),mortality ([3]; sprayed at 10 ppm),control efficacy: feeding damage (40% or less feeding damage and/or 100% mortality) ([2]; sprayed at 2 ppm),control efficacy: plant damage (30% or less plant damage and/or 100% mortality) ([4]; sprayed at 2 ppm)
COC[C@H](NC(=O)c1ccc(C2=NOC(c3cc(Cl)c(F)c(Cl)c3)(C(F)(F)F)C2)c2ccccc12)C(N)=O (some centres unmarked) [Compound 45],≤ 40%,≤ 40%,≤ 40%,at least 80%,≤ 30%,,,
C[C@H](NC(=O)c1ccc(C2=NOC(c3cc(Cl)c(F)c(Cl)c3)(C(F)(F)F)C2)c2ccccc12)C(=O)NCC#N (some centres unmarked) [Compound 48],≤ 40%,≤ 40%,≤ 40%,at least 80%,≤ 30%,at least 80%,,
O=C(NCc1ncc(C(F)(F)F)cn1)c1ccc(C2=NOC(c3cc(Cl)c(F)c(Cl)c3)(C(F)(F)F)C2)c2ccccc12 (centres unmarked) [Compound 52],≤ 40%,≤ 40%,≤ 40%,at least 80%,,at least 80%,,
CC(C#N)NC(=O)c1ccc(C2=NOC(c3cc(Cl)c(F)c(Cl)c3)(C(F)(F)F)C2)c2ccccc12 (centres unmarked) [Compound 71],≤ 40%,≤ 40%,≤ 40%,at least 80%,≤ 30%,at least 80%,≤ 40%,≤ 30%
NC(=O)C1(NC(=O)c2ccc(C3=NOC(c4cc(Cl)c(F)c(Cl)c4)(C(F)(F)F)C3)c3ccccc23)CC1 (centres unmarked) [Compound 72],≤ 40%,≤ 40%,≤ 40%,at least 80%,≤ 30%,at least 80%,,≤ 30%
CNC(=O)C1(NC(=O)c2ccc(C3=NOC(c4cc(Cl)c(F)c(Cl)c4)(C(F)(F)F)C3)c3ccccc23)CC1 (centres unmarked) [Compound 75],≤ 40%,≤ 40%,≤ 40%,at least 80%,≤ 30%,at least 80%,,≤ 30%
CCNC(=O)C1(NC(=O)c2ccc(C3=NOC(c4cc(Cl)c(F)c(Cl)c4)(C(F)(F)F)C3)c3ccccc23)CC1 (centres unmarked) [Compound 76],≤ 40%,≤ 40%,≤ 40%,at least 80%,≤ 30%,at least 80%,≤ 40%,≤ 30%
N#CC1(CNC(=O)c2ccc(C3=NOC(c4cc(Cl)c(F)c(Cl)c4)(C(F)(F)F)C3)c3ccccc23)CC1 (centres unmarked) [Compound 78],≤ 40%,≤ 40%,≤ 40%,at least 80%,≤ 30%,at least 80%,≤ 40%,≤ 30%
CS(=O)(=O)N1CC(NC(=O)c2ccc(C3=NOC(c4cc(Cl)c(F)c(Cl)c4)(C(F)(F)F)C3)c3ccccc23)C1 (centres unmarked) [Compound 79],≤ 40%,≤ 40%,≤ 40%,at least 80%,≤ 30%,at least 80%,≤ 40%,≤ 30%

# Reference: patent US11576382B2, “Naphthalene isoxazoline compounds for controlling invertebrate pests” (FMC Corporation, priority 2018, dated 2023)
